Data as given in PMC3812651.
These are yes or no findings as the source states them, for the method shown. In cells and extracts the contact can be indirect. Here binding means that the protein was enriched with, or labelled near, the bait; the list need not be complete.

The chains behind the UniProt entries cited, without tags or fusion partners.
UniProt Q8N6T7: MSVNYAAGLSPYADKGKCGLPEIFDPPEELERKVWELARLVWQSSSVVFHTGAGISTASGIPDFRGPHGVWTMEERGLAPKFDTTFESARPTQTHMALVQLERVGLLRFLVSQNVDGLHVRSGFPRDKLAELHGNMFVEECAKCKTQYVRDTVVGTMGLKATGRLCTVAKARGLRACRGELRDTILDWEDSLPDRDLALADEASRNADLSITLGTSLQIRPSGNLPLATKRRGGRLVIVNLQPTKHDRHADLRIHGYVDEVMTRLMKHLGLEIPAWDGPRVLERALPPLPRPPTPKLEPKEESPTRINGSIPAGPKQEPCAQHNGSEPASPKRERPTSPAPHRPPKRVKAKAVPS
UniProt P78527: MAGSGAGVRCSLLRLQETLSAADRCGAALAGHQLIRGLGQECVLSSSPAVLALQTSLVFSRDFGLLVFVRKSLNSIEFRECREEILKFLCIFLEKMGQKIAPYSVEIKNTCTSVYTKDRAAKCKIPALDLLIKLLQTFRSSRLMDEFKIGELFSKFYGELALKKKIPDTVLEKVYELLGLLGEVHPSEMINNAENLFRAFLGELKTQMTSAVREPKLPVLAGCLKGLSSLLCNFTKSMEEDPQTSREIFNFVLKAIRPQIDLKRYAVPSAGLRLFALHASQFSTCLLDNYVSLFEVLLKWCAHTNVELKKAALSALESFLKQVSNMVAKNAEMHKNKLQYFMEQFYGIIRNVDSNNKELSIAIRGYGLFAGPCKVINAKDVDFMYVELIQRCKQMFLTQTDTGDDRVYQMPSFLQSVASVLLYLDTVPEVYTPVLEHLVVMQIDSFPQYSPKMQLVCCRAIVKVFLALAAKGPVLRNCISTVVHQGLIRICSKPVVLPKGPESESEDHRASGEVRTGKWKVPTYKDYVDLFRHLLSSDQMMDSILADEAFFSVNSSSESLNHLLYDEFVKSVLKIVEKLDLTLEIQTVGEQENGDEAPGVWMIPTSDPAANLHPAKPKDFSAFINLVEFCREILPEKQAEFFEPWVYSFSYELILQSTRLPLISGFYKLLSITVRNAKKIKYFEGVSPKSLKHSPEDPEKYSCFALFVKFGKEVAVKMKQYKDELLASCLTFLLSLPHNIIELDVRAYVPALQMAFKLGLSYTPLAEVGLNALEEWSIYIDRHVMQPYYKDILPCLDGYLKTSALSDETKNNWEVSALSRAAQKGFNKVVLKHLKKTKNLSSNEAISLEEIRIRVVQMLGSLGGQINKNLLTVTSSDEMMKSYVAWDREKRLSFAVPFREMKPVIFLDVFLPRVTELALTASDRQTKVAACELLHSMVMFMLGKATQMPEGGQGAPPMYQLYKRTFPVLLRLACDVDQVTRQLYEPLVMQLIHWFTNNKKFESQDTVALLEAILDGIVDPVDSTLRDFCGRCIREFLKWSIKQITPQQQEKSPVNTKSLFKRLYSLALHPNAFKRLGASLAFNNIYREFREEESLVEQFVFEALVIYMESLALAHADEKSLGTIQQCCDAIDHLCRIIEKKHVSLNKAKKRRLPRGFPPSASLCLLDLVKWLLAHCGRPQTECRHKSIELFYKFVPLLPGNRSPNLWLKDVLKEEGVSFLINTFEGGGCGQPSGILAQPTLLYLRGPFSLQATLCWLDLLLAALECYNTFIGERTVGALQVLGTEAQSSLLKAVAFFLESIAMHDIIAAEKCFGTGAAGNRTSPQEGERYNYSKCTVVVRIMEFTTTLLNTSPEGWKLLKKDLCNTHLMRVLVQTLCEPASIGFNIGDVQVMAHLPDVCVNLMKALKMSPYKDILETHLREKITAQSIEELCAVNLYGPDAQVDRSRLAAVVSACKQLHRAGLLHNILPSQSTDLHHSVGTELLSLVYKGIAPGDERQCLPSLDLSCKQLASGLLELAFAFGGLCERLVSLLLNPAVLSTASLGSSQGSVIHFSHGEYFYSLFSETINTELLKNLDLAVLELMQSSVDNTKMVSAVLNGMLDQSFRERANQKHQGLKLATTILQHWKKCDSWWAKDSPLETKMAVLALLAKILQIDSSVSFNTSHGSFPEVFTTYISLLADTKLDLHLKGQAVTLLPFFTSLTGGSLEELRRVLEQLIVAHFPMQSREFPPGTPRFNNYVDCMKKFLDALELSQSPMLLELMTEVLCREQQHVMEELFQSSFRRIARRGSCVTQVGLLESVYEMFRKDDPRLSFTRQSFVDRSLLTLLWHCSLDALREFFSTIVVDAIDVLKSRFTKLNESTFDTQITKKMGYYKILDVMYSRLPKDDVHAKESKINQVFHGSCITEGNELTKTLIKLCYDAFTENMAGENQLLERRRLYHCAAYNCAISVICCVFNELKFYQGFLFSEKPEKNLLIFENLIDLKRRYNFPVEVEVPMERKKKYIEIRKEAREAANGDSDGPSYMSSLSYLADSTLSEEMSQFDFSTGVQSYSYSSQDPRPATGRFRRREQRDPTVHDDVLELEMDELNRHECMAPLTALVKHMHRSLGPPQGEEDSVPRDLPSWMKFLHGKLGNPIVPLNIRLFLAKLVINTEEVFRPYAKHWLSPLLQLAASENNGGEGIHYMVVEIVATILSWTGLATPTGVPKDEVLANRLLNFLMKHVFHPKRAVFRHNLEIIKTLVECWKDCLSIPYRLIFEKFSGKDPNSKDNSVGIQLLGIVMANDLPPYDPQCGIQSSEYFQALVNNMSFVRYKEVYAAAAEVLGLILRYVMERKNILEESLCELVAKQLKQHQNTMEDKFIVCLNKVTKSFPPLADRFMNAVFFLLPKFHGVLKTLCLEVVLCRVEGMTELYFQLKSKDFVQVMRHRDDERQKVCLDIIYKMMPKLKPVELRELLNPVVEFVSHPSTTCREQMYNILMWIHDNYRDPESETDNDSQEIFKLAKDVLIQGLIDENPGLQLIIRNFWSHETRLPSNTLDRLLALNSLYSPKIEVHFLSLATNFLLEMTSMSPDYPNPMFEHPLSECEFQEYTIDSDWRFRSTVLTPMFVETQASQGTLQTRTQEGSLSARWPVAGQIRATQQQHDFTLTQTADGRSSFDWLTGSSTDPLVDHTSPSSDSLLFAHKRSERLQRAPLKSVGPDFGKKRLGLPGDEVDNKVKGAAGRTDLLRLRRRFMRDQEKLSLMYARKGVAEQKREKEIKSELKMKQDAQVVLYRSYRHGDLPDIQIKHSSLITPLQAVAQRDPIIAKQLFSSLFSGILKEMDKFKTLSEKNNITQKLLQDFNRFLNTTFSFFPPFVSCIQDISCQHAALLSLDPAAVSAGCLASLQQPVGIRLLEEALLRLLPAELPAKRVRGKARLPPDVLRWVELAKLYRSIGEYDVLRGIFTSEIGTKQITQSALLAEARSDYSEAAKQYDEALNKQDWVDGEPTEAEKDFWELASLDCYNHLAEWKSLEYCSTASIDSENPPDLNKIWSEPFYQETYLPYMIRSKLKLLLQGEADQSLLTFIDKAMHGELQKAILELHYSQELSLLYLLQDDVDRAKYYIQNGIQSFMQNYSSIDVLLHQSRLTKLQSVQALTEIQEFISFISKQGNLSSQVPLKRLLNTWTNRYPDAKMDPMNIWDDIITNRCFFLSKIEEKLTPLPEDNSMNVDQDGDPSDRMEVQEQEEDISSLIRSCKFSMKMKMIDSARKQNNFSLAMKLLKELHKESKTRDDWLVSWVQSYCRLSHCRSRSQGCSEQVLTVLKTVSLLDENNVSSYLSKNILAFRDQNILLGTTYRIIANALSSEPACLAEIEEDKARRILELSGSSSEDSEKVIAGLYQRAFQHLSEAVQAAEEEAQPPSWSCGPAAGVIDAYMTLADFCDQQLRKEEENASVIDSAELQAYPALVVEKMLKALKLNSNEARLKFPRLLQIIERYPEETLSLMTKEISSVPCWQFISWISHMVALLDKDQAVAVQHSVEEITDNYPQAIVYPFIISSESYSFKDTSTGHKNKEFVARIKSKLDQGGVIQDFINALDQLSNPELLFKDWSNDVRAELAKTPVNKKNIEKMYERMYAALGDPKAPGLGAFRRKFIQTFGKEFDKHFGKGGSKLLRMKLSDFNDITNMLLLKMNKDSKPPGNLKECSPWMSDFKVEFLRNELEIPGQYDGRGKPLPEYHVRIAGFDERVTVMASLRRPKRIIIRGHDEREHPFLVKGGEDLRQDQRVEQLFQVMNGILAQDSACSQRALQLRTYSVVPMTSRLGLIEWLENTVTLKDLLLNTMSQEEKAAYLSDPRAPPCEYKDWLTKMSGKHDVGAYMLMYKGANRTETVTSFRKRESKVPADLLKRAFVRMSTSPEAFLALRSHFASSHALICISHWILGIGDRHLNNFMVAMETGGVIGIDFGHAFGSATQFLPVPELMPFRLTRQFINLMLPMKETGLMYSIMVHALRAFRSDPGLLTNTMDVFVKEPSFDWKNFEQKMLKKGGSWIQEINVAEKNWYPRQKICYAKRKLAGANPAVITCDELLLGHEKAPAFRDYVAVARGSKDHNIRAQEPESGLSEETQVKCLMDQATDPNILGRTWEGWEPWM
UniProt Q13283: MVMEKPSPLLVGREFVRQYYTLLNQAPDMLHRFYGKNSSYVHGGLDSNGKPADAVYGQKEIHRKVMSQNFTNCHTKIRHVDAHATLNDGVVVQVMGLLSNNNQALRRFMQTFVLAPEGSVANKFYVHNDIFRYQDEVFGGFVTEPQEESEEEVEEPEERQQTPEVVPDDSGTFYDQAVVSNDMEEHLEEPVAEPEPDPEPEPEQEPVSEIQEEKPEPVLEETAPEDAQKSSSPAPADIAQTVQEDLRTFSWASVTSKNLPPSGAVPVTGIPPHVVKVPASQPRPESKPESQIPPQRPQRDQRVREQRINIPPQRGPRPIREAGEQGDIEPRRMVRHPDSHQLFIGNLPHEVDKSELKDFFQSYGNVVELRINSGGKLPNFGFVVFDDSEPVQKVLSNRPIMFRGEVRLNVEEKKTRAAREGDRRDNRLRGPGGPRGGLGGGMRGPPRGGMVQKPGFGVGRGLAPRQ

Target: SIRT6 with a C-terminal FLAG tag, stably expressed in HeLa S3 cells (UniProt Q8N6T7)
Experiment: affinity purification with mass spectrometry; SIRT6-FLAG from pooled Superose 6 fractions (400-600, 600-800, 800-1200 KDa) of HeLa S3 nuclear extract on anti-FLAG M2 agarose, eluted with Flag-peptide, LC-MS; control cells in parallel

binding	Substance
binds	DNA-PKcs, endogenous in HeLa S3 cells (from UniProt P78527 1-4128)
binds	G3BP1 (GTPase Activating Protein Binding Protein 1), endogenous in human cells (from UniProt Q13283 1-466)
